Experimental data: patent publication US6369109B1, “Betulinic acid and derivatives thereof useful for the treatment of neuroectodermal tumor” (Deutsches Krebsforschungszentrum Stiftung des Offentlichen …, priority 1998, dated 2002)
For at least one compound, name, drawing or mass did not settle the structure.

Chains of the proteins cited; added tags and fusions are not shown. Residues count along the entry.
UniProt P42574, 29-277: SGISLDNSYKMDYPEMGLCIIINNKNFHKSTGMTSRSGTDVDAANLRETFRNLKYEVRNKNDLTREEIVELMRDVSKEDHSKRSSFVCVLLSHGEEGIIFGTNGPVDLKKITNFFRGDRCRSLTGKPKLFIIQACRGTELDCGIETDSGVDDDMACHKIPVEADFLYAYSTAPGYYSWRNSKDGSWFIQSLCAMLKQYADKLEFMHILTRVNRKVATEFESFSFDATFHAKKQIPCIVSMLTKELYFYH

Key:
medulloblastoma (Daoy) = test: Specific apoptosis, FACS analysis of propidium iodide-stained nuclei; assay type: cell-based; details: 10 μg/ml, 72 h; FIG. 1A
breast carcinoma (MCF-7) = test: as above; assay type: cell-based; details: 10 μg/ml, 72 h; FIG. 1A
caspase-3 = target: T1, caspase-3 (Homo sapiens, UniProt P42574); test: In vitro cleavage assay of in vitro translated, radiolabeled caspase-3; assay type: biochemical; details: Example 3; data not shown
T1 construct: made in house

[1] = test system: mitochondria isolated from SHEP cells; test: Mitochondrial membrane potential of isolated mitochondria (DiOC6(3)); assay type: biochemical, human; details: 30 min; for Δψm of isolated mitochondria: mitochondria from wild type or vector-only SHEP cells, 10 μg/ml betulinic acid, FIG. 7, 12D
Protocol: For isolation of mitochondria, cells (3×10^5 per sample) were washed twice with ice-cold PBS and resuspended with five volumes of buffer A (50 mM Tris, 1 mM EGTA, 5 mM 2-mercaproethanol, 0.2% BSA, 10 mM KH2PO4, pH 7.6, 0.4 M sucrose) and allowed to swell on ice for 20 min. Cells were homogenized with 30 strokes of a Teflon homogenizer and centrifuged at 10000 g for 10 min at 4° C. The resulting pellets were resuspended in buffer B (10 mM KH2PO4, pH 7.2, […] mannitol, 0.1% BSA). Mitochondria were separated by sucrose gradient (lower layer: 1.6 M sucrose, 10 mM KH2PO4, pH 7.5, 0.1% BSA; upper layer: 1.2 M sucrose, 10 mM KH2PO4, pH 7.5, 0.1% BSA). Interphases containing mitochondria were washed with buffer B at 18000 g for 10 min at 4° C. and the resulting mitochondrial pellets were resuspended in buffer B. For preparation of cytosolic extracts, cells (1×10^8 per sample) were washed twice with ice-cold PBS, resuspended with one volume of buffer A and allowed to swell on ice for 20 min. Cells were homogenized with 30 strokes of a Dounce homogenizer and centrifuged at 15000×g for 15 min ax 4° C. The protein concentration of mitochondria or cytosolic extracts was determined by Bradford method (Bio-Rad). For isolation of nuclei, cells were washed twice in ice-cold PBS, resuspended in 10 volumes of buffer C (10 mM PIPES, pH 7.4, 10 mM KCl, 2 mM MgCl2, 1 mM DDT, 1 mM PMSF, 10 μM cytochalasin B), allowed to swell on ice for 20 min and homogenized using a Teflon homogenizer. Homogenates were layered over 30% sucrose in buffer C and centrifuged at 800 g for 10 min. The resulting nuclear pellets were resuspended in buffer C and washed three times. Nuclei were scored at −80° C. in aliquots of 10^8 nuclei/ml until required. […]
Mitochondria (5×10^5/ml) were treated with 10 μg/ml betulinic acid for 30 min, incubated with 3,3′-dihexyloxacarbocyanide iodide (DiOC6(3), 40 nM, Molecular Probes, Inc., Eugene, Oreg.) for 15 min at 37° C. and analyzed on a flow cytometer (FACS Vantage, Becton Dickinson). […]

[2] = test system: mitochondria isolated from SHEP cells; test: Cytochrome c release from isolated mitochondria (Western blot); assay type: biochemical, human; details: 10 μg/ml; FIG. 10C
Protocol: Cells were lysed for 30 min at 4° C. in PBS with 0.5% Triton X (Serva, Heidelberg, Germany) and 1 mM PMSF (Sigma, Deisenhofen, Germany) followed by high-speed centrifugation. Membrane proteins were eluted in buffer containing 0.1 M glycine, pH 3.0 and 1.5 M Tris, pH 8.8. Protein concentration was assayed using bicinchoninic acid (Pierce, Rockford, Ill.). 40 μg protein per lane was separated by 12% or 15% SDS-PAGE and electro blotted onto nitrocellulose (Amersharn, Braunschweig, Germany). Equal protein loading was controlled by Ponceau red staining of membranes. After blocking for 1 h in PBS supplemented with 2% BSA (Sigma) and 0.1% Tween 20 (Sigma), immunodetection of caspases-3 and -8, PARP, and cytochrome c protein was done using mouse anti-caspase-8 mAb C15 (Scaffidi et al., 1997, J. Biol. Chem. 272, 26953-26958, 1:5 dilution of hybridoma supernatant), mouse anti-caspase-3-specific mAb (1:1000, Transduction Laboratories, Lexington, Ky.), rabbit anti-PARP polyclonal antibody (1:10000, Enzyme Systems Products) or mouse anti-cytochrome c mAb (1:5000, PharMingen, San Diego, Calif.). Goat anti-mouse IgG or goat anti-rabbit IgG (1:5000, Santa Cruz Biotechnology) followed by ECL (Amersham) was used for detection.
Mitochondria isolated from SHEP cells transfected with bcl-2, Bcl-XL or a neontycin resistance vector only (Neo) were treated with 10 μg/ml betulinic acid. […]

C=C(C)[C@@H]1CC[C@]2(C(=O)O)CC[C@]3(C)[C@H](CC[C@@H]4[C@@]5(C)CC[C@H](O)C(C)(C)[C@@H]5CC[C@]43C)[C@@H]12 [betulinic acid, 3β-3-hydroxylup-20(29)-en-28-oic acid]
response to betulinic acid (specific apoptosis) (medulloblastoma (Daoy)): highly responsive
response to betulinic acid (specific apoptosis) (breast carcinoma (MCF-7)): almost completely refractory
direct cleavage of in vitro translated, radiolabeled caspase-3 (caspase-3): no cleavage products were detected
Δψm of isolated mitochondria from Bcl-2 or Bcl-XL transfected cells ([1]; 10 μg/ml, FIG. 7): had no effect
Δψm of isolated mitochondria [1]: underwent a loss of the Δψm
Δψm of isolated mitochondria ([1]; listed as Betulinic acid): caused a loss in ΔΨm
cytochrome c release in isolated mitochondria [2]: directly induced cytochrome c release
